# According to patent US20260242474A1 (PERSONGEN BIOTHERAPEUTICS SUZHOU, published 2026):
# The chains behind the UniProt entries cited, without tags or fusion partners. Residues count along the entry.
# UniProt Q15116, residues 25-288: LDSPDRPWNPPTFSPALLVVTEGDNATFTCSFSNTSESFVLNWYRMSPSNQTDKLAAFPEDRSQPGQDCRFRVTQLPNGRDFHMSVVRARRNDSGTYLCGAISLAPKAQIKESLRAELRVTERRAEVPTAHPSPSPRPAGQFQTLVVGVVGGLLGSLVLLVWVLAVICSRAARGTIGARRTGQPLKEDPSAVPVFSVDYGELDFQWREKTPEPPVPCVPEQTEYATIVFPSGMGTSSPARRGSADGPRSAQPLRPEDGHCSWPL
# Results are given in words; binding and its absence hold for the method and conditions named. Some results given as binding are weak or reduced against the parent protein; the word gives no strength. Sequences can lack the tags named with a protein.
# Molecular target: PD1 on overexpressing cells (UniProt Q15116)
# Experiment: flow cytometry, CHO cells overexpressing PD1, PE-anti-human IgG
row,binding,Binder
1,binds,"LAB190417-2-C10 PD1 single domain antibody (VHH with human IgG1 Fc) (Fc fusion, not shown: a dimerising Fc or GST) QVQLVESGGGLVQPGGSLRLSCAASGFSLDAYTIGWFRQAPGQEREGISCISRSGRITNYARSAKDRFTISRDNAKNTVYLEMKNLRPEDTGAYYCAAVEMDPFLCSGYTQSYDQWGQGTQVTVSS"
2,binds,"LAB190417-3-H6 PD1 single domain antibody (VHH with human IgG1 Fc) (Fc fusion, not shown: a dimerising Fc or GST) QLKVVESGGGLVQPGESLRLSCAASGFTLGNYGVAWFRQAPGKEREGLSCITSGSTSVTHADSVKGRFSVSRDSDKKMVYLQMDSLKPEDTGIYYCAAADGGYVCSRNVNANEFDYWGQGTQVTVSS"
3,binds,"LAB190417-2-B1 PD1 single domain antibody (VHH with human IgG1 Fc) (Fc fusion, not shown: a dimerising Fc or GST) QVQLVESGGGLVQPGGSLTVSCAASGFSLDAYTIGWFRQAPGKEREGIICISRGGRITNYAHSVKDRFTISRDGAKNTVYLHMNSLKPEDTGAYYCAAVQRDPFICSGYTQSYDHWGQGTQVTVSS"
4,binds,"LAB190417-2-F3 PD1 single domain antibody (VHH with human IgG1 Fc) (Fc fusion, not shown: a dimerising Fc or GST) QVKLEESGGGLVQPGGSLTVSCVASGFSLDAYTIGWFRQAPGKEREGIICISRGGRITNYAHSVKDRFTISRDGAKNMVYLHMNSLKPEDTGAYYCAAVQRDPFICSGYTQSYDLWGQGTQVTVSS"
